The values that follow come from paper PMC6389896 (Communications Biology, 2019).

Protein sequences, listed by entry. Tags and fused reporters are not part of them. Lines headed by an entry give the natural chain unless they say otherwise; changes in a name come on top. Residues count along the entry.
UniProt Q15109, residues 23-342: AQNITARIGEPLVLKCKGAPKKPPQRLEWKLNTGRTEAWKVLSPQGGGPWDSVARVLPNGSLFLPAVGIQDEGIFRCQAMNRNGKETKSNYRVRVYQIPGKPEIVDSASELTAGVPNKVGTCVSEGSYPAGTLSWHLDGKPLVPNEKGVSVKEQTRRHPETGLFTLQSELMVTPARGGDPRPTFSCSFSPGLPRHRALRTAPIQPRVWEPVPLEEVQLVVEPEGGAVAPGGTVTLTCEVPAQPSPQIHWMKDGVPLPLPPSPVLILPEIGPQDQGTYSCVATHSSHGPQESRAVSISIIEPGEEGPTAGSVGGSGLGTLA
UniProt P01178: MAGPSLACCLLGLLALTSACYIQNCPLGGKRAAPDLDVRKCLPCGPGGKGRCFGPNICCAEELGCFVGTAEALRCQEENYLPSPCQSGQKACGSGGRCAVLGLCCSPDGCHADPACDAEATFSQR

No constants are given. Whether binding was seen depends on the method and setting. For some assays here: Binding seen in cells or lysates may run through a third protein. Some entries that bind do so weakly or less than the wild type.

For assay [1], the target named is Endogenous soluble RAGE in human serum (human (endogenous in human serum)) (UniProt Q15109). The experiment in a line: SEC; gel permeation of human serum (12 ml, preincubated with 48 ng oxytocin) on Superdex 75 pg HiLoad 26/600, 5 mM ammonium acetate pH 7.8, 1.0 ml/min; oxytocin found in the fractions by EIA.
The target is the same in assay [2]. As to the kind of experiment: co-IP; anti-RAGE monoclonal antibody coupled to an NHS-activated HiTrap column; 50 ml human serum applied in 50 mM Tris-HCl pH 7.4, 0.15 M NaCl; eluted with 100 mM glycine-HCl pH 2.5; eluates analysed by EIA and Western blotting.

Consider CYIQNCPLG (peptide, UniProt P01178 20-28) [Endogenous oxytocin in human serum], for which the binding result in assay [1] and in assay [2] was “binds” in each case.
